Measured values: patent US20130079280A1
Results are given in words; binding and its absence hold for the method and conditions named. Some entries that bind do so weakly or less than the wild type.

Chains of the proteins cited; added tags and fusions are not shown. Residues count along the entry.
UniProt P29965, residues 113-261: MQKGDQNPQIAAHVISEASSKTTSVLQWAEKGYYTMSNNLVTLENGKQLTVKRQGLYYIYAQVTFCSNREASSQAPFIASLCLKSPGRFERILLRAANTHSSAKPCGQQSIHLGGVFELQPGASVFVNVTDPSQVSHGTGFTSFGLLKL
UniProt O14763, residues 54-182: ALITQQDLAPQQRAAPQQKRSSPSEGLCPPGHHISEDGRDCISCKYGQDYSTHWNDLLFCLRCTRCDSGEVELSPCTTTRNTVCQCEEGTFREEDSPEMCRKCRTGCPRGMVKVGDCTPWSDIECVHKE

Tests used:
[1] = target: Human CD40L, recombinant (E. coli produced) (human) (UniProt P29965); experiment: AlphaScreen bridging assay: purified D1-1E11-79, biotinylated huCD40L (streptavidin beads), Synagis titrated 0-42 nM (Protein A beads); signal needs both targets bound at once
[2] = target: human TRAIL R2-Fc fusion protein (human) (UniProt O14763); experiment: bridging ELISA: plate coated with TRAIL R2-Fc (1 ug/ml), D1-1E11-79 titrated, biotinylated Synagis, HRP-streptavidin; signal needs both targets bound at once
[3] = target: human TRAIL R2-Fc fusion protein (human) (UniProt O14763); experiment: ELISA
[4] = target: human TRAIL R2-Fc fusion protein (human) (UniProt O14763); experiment: AlphaScreen, simultaneous binding
[5] = target: Human CD40L, recombinant (E. coli produced) (human) (UniProt P29965); experiment: AlphaScreen, simultaneous binding
[6] = target: human TRAIL R2-Fc fusion protein (human) (UniProt O14763); experiment: AlphaScreen
[7] = target: Human CD40L, recombinant (E. coli produced) (human) (UniProt P29965); experiment: AlphaScreen
[8] = target: human TRAIL R2-Fc fusion protein (human) (UniProt O14763); experiment: AlphaScreen bridging assay: purified D1-1E11-79, biotinylated huCD40L (streptavidin beads), TrailR2-Fc titrated 0-42 nM (Protein A beads); signal needs both targets bound at once
[9] = target: Human CD40L, recombinant (E. coli produced) (human) (UniProt P29965); experiment: as above
[10] = target: human TRAIL R2-Fc fusion protein (human) (UniProt O14763); experiment: ELISA; plate coated with TRAIL R2-Fc, biotinylated Synagis detected
[11] = target: human TRAIL R2-Fc fusion protein (human) (UniProt O14763); experiment: competition ELISA; F4 mod 1 coated plate, 0.75 nM human TRAIL R2-Fc

| binding [1] | binding [2] | binding [3] | binding [4] | binding [5] | binding [6] | binding [7] | binding [8] | binding [9] | binding [10] | binding [11] | Binder |
| --- | --- | --- | --- | --- | --- | --- | --- | --- | --- | --- | --- |
| binds | binds | binds | binds | binds | binds | binds | binds | binds | binds |  | D1-1E11-79, trispecific/trivalent Tn3 scaffold (designed binder) IEVKDVTDTTALITWSPGERIWMFTGCELTYGIKDVPGDRTTIDLTEDENQYSIGNLKPDTEYEVSLICPNYERISNPAKETFTTGGGGSGGGGSGGGGSIEVKDVTDTTALITWAKPWVDPPPLWGCELAYGIKDVPGDRTTIDLQQKHTAYSIGNLKPDTEYEVSLICFDPYGAKSNPAKETFTTGGGGSGGGGSGGGGSIEVKDVTDTTALITWIPPHNADSSIIGCELTYGIKDVPGDRTTIDLYDVAFDYSIGNLKPDTEYEVSLICDTFYGFDSNPAKETFTT |
|  |  |  |  |  |  |  |  |  |  | binds | F4 mod 1, cyno cross reactive TRAIL R2-binding Tn3 monomer (designed binder) AIEVKDVTDTTALITWAKPWVDPPPLWGCELAYGIKDVPGDRTTIGLQQKHTAYSIGNLKPDTEYEVSLICFDPYGLKSRPAKETFTTGGGTLGHHHHHHHH |
